Data as given in US8324199B2, “Pyridazine derivatives as factor xia inhibitors” (Bristol-Myers Squibb Company, priority 2008, dated 2012).
Some entries share one result that the patent states for a list of compounds.

The chains behind the UniProt entries cited, without tags or fusion partners. Residues count along the entry.
UniProt P03951, 19-387 partner limits assumed: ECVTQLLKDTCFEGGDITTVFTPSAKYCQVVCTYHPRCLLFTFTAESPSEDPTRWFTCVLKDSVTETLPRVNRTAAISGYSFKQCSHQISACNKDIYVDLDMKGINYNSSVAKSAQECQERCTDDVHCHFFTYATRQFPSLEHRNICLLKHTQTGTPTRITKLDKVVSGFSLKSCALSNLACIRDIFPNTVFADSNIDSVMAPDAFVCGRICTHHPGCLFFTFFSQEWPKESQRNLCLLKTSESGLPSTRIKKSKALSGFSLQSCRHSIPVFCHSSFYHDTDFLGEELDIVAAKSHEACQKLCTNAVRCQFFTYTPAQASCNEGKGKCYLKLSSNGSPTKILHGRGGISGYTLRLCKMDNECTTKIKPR
UniProt P03951, 388-625 limits assumed: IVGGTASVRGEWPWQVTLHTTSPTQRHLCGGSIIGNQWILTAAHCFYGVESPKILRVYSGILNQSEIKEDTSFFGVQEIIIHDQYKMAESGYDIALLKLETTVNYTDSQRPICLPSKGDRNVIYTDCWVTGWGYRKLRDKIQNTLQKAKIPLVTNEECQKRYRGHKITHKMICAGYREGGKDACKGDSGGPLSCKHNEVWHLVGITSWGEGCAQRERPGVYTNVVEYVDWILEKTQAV

Biological target: T1, purified human Factor XIa (Homo sapiens, UniProt P03951)
T1 construct: purchased Haematologic Technologies
Assay: Factor XIa assay (chromogenic substrate hydrolysis, Ki)
Type: biochemical
Conditions: tested in the Factor XIa assay described above
Experimental: The effectiveness of compounds of the present invention as inhibitors of the coagulation factors XIa, VIIa, IXa, Xa, XIIa, plasma kallikrein or thrombin, can be determined using a relevant purified serine protease, respectively, and an appropriate synthetic substrate. The rate of hydrolysis of the chromogenic or fluorogenic substrate by the relevant serine protease was measured both in the absence and presence of compounds of the present invention. […] A decrease in the rate of absorbance or fluorescence change in the presence of inhibitor is indicative of enzyme inhibition. Such methods are known to one skilled in the art. The results of this assay are expressed as the inhibitory constant, Ki.
Factor XIa determinations were made in 50 mM HEPES buffer at pH 7.4 containing 145 mM NaCl, 5 mM KCl, and 0.1% PEG 8000 (polyethylene glycol; JT Baker or Fisher Scientific). Determinations were made using purified human Factor XIa at a final concentration of 75-200 pM (Haematologic Technologies) and the synthetic substrate S-2366 (pyroGlu-Pro-Arg-pNA; Chromogenix or AnaSpec) at a concentration of 0.0002-0.001 M.
The Michaelis constant, Km, for substrate hydrolysis by each protease, was determined at 25° C. using the method of Lineweaver and Burk. Values of Ki were determined by allowing the protease to react with the substrate in the presence of the inhibitor. Reactions were allowed to go for periods of 20-180 minutes (depending on the protease) and the velocities (rate of absorbance or fluorescence change versus time) were measured. The following relationships were used to calculate Ki values: (vo−vs)/vs=I/(Ki(1+S/Km)) for a competitive inhibitor with one binding site; or vs/vo=A+((B−A)/1+((IC50/(I)^n))); and Ki=IC50/(1+S/Km) for a competitive inhibitor where: […]

SMILES | Factor XIa inhibitory activity
COC(=O)Nc1ccc(-c2cc(C(Cc3ccccc3)NC(=O)/C=C/c3cc(Cl)ccc3-n3ccnc3)c(Cl)nn2)cc1 (racemic) [Example 8, (±)-(E)-Methyl 4-(6-chloro-5-(1-(3-(5-chloro-2-(1H-imidazol-1-yl)phenyl)acrylamido)-2-phenylethyl)pyridazin-3-yl)phenylcarbamate] | having Factor XIa inhibitory activity
COC(=O)Nc1ccc(-c2cc(C(CC(C)C)NC(=O)/C=C/c3cc(Cl)ccc3-n3cnnn3)c(Cl)nn2)cc1 (racemic) [Example 14, (±)-(E)-Methyl 4-(6-chloro-5-(1-(3-(5-chloro-2-(1H-tetrazol-1-yl)phenyl)acrylamido)-3-methylbutyl)pyridazin-3-yl)phenylcarbamate] | having Factor XIa inhibitory activity
COC(=O)Nc1ccc(-c2cc(C(CNC(=O)OC(C)(C)C)NC(=O)/C=C/c3cc(Cl)ccc3-n3cnnn3)c(Cl)nn2)cc1 (racemic) [Example 15, (±)-[4-(5-{2-tert-Butoxycarbonylamino-1-[(E)-3-(5-chloro-2-tetrazol-1-yl-phenyl)-acryloylamino]-ethyl}-6-chloro-pyridazin-3-yl)-phenyl]-carbamic acid methyl ester] | having Factor XIa inhibitory activity
COC(=O)Nc1ccc(-c2cc(C(CNC(=O)OC(C)(C)C)NC(=O)/C=C/c3cc(Cl)ccc3-n3cnnn3)cnn2)cc1 (racemic) [Example 16, (±)-[4-(5-{2-tert-Butoxycarbonylamino-1-[(E)-3-(5-chloro-2-tetrazol-1-yl-phenyl)-acryloylamino]-ethyl}-pyridazin-3-yl)-phenyl]-carbamic acid methyl ester] | having Factor XIa inhibitory activity
COC(=O)Nc1ccc(-c2cc(C(CC(=O)OC(C)(C)C)NC(=O)/C=C/c3cc(Cl)ccc3-n3cnnn3)c(Cl)nn2)cc1 (racemic) [Example 19, (±)-(E)-tert-Butyl 3-(3-(5-chloro-2-(1H-tetrazol-1-yl)phenyl)acrylamido)-3-(3-chloro-6-(4-(methoxycarbonylamino)phenyl)pyridazin-4-yl)propanoate] | having Factor XIa inhibitory activity
COC(=O)Nc1ccc(-c2cc(C(CC(=O)N(C)C)NC(=O)/C=C/c3cc(Cl)ccc3-n3cnnn3)c(Cl)nn2)cc1 (racemic) [Example 22, (±)-(E)-Methyl 4-(6-chloro-5-(1-(3-(5-chloro-2-(1H-tetrazol-1-yl)phenyl)acrylamido)-3-(dimethylamino)-3-oxopropyl)pyridazin-3-yl)phenylcarbamate] | having Factor XIa inhibitory activity
COC(=O)Nc1ccc(-c2cc(C(CC(=O)N(C)C)NC(=O)/C=C/c3cc(Cl)ccc3-n3cnnn3)cnn2)cc1 (racemic) [Example 24, (±)-(E)-Methyl 4-(5-(1-(3-(5-chloro-2-(1H-tetrazol-1-yl)phenyl)acrylamido)-3-(dimethylamino)-3-oxopropyl)pyridazin-3-yl)phenylcarbamate] | having Factor XIa inhibitory activity
COC(=O)Nc1ccc(-c2cc(C(CC(=O)N3CCN(C)CC3)NC(=O)/C=C/c3cc(Cl)ccc3-n3cnnn3)c(Cl)nn2)cc1 (racemic) [Example 25, (±)-(E)-Methyl 4-(6-chloro-5-(1-(3-(5-chloro-2-(1H-tetrazol-1-yl)phenyl)acrylamido)-3-(4-methylpiperazin-1-yl)-3-oxopropyl)pyridazin-3-yl)phenylcarbamate] | having Factor XIa inhibitory activity
COC(=O)Nc1ccc(-c2cc(C(CC(=O)N3CCC(O)CC3)NC(=O)/C=C/c3cc(Cl)ccc3-n3cnnn3)c(Cl)nn2)cc1 (racemic) [Example 26, (±)-(E)-Methyl 4-(6-chloro-5-(1-(3-(5-chloro-2-(1H-tetrazol-1-yl)phenyl)acrylamido)-3-(4-hydroxypiperidin-1-yl)-3-oxopropyl)pyridazin-3-yl)phenylcarbamate] | having Factor XIa inhibitory activity
COC(=O)Nc1ccc(-c2cc(C(CC(=O)N3CCCC3)NC(=O)/C=C/c3cc(Cl)ccc3-n3cnnn3)c(Cl)nn2)cc1 (racemic) [Example 32, (±)-(E)-Methyl 4-(6-chloro-5-(1-(3-(5-chloro-2-(1H-tetrazol-1-yl)phenyl)acrylamido)-3-oxo-3-(pyrrolidin-1-yl)propyl)pyridazin-3-yl)phenylcarbamate] | having Factor XIa inhibitory activity
COC(=O)Nc1ccc(-c2cc(C(CNC(C)=O)NC(=O)/C=C/c3cc(Cl)ccc3-n3cnnn3)c(Cl)nn2)cc1 (racemic) [Example 34, (±)-(E)-Methyl 4-(5-(2-acetamido-1-(3-(5-chloro-2-(1H-tetrazol-1-yl)phenyl)acrylamido)ethyl)-6-chloropyridazin-3-yl)phenylcarbamate] | having Factor XIa inhibitory activity
COC(=O)Nc1ccc(-c2cc(C(CNC(C)C)NC(=O)/C=C/c3cc(Cl)ccc3-n3cnnn3)c(Cl)nn2)cc1 (racemic) [Example 35, (±)-(E)-Methyl 4-(6-chloro-5-(1-(3-(5-chloro-2-(1H-tetrazol-1-yl)phenyl)acrylamido)-2-(isopropylamino)ethyl)pyridazin-3-yl)phenylcarbamate] | having Factor XIa inhibitory activity
Nc1ccc(-c2cc(C(Cc3ccccc3)NC(=O)/C=C/c3cc(Cl)ccc3-n3cnnn3)c(Cl)nn2)cn1 (racemic) [Example 36, (±)-(E)-N-(1-(6-(6-Aminopyridin-3-yl)-3-chloropyridazin-4-yl)-2-phenylethyl)-3-(5-chloro-2-(1H-tetrazol-1-yl)phenyl)acrylamide] | having Factor XIa inhibitory activity
COC(=O)Nc1ccc(-c2cc(C(Cc3ccc(C)nc3)NC(=O)/C=C/c3cc(Cl)ccc3-n3cnnn3)nnc2Cl)cc1 (racemic) [Example 103, (E)-Methyl 4-(3-chloro-6-(1-(3-(5-chloro-2-(1H-tetrazol-1-yl)phenyl)acrylamido)-2-(6-methylpyridin-3-yl)ethyl)pyridazin-4-yl)phenylcarbamate] | having Factor XIa inhibitory activity
C=CCC(NC(=O)/C=C/c1cc(Cl)ccc1-n1cnnn1)c1cc(-c2ccc(NC(=O)OC)cc2)c(=O)[nH]n1 (racemic) [Example 139, (±)-(E)-Methyl 4-(6-(1-(3-(5-chloro-2-(1H-tetrazol-1-yl)phenyl)acrylamido)but-3-enyl)-3-oxo-2,3-dihydropyridazin-4-yl)phenylcarbamate] | having Factor XIa inhibitory activity
COC(=O)Nc1ccc(-c2cc(C(CC(=O)OC(C)(C)C)NC(=O)/C=C/c3cc(Cl)ccc3-n3cnnn3)c(Cl)nn2)cc1 (single isomer, unassigned) [Example 20, (E)-tert-Butyl 3-(3-(5-chloro-2-(1H-tetrazol-1-yl)phenyl)acrylamido)-3-(3-chloro-6-(4-(methoxycarbonylamino)phenyl)pyridazin-4-yl)propanoate] | having Factor XIa inhibitory activity
COC(=O)Nc1ccc(-c2cc(C(CC(=O)N(C)C)NC(=O)/C=C/c3cc(Cl)ccc3-n3cnnn3)c(Cl)nn2)cc1 (single isomer, unassigned) [Example 23, (E)-Methyl 4-(6-chloro-5-(1-(3-(5-chloro-2-(1H-tetrazol-1-yl)phenyl)acrylamido)-3-(dimethylamino)-3-oxopropyl)pyridazin-3-yl)phenylcarbamate] | having Factor XIa inhibitory activity
